Laboratory results published in paper PMC7862231.
No constants are given. Whether binding was seen depends on the method and setting. Binding seen in cells or lysates may run through a third protein. Some entries that bind do so weakly or less than the wild type. For part of these data: Tags and fused reporters may be left off the sequences shown. Values belong to the binder of their own block, whether it stands above or below them.

Columns and labels:
[1] = molecular target: T1, MAX interactor 1 (Mxi1), exogenously expressed in HEK293T cells (human) (UniProt P50539); test: co-IP; HEK293T cells transfected with indicated plasmids for 24 h, MG132 (10 uM) for 4 h; lysed in NETN buffer; co-IP with S beads or Myc agarose, western blotting
T1 sequence: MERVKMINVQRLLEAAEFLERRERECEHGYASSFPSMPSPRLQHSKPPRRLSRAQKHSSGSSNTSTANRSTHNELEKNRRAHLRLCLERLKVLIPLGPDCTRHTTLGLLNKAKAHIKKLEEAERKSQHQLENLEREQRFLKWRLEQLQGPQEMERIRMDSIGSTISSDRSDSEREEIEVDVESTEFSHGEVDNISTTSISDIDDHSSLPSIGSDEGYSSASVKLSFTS

[2] = molecular target: T2, SFB-Mxi1 expressed in HeLa cells (human) (UniProt P50539); test: co-IP; HeLa cells transfected with SFB-Mxi1 or SFB-UBE2O for 24 h, MG132 (10 uM) for 4 h; co-IP with S beads, western blotting for the endogenous partner
T2 sequence: T1 sequence

[3] = molecular target: T3, endogenous Mxi1 (human (endogenous in HeLa, H1299, A549)) (UniProt P50539); test: co-IP; endogenous proteins; HeLa, H1299 and A549 cells, MG132 (10 uM) for 4 h; co-IP with anti-IgG, Mxi1 or UBE2O antibodies plus protein A/G agarose, western blotting
T3 sequence: T1 sequence

[4] = molecular target: T4, GST-Mxi1 fusion protein (human) (UniProt P50539); test: pull-down; purified GST or GST-Mxi1 coupled to GST beads, incubated overnight with lysate of HEK293T cells transfected with SFB-UBE2O; washed five times with NETN buffer; immunoblotting; only the target purified
T4 sequence: T1 sequence

[5] = molecular target: T5, Ubiquitin-conjugating enzyme E2O (UBE2O), exogenously expressed in HEK293T cells (human) (UniProt Q9C0C9); test: co-IP; HEK293T cells transfected with indicated plasmids for 24 h, MG132 (10 uM) for 4 h; lysed in NETN buffer; co-IP with S beads or Myc agarose, western blotting
T5 sequence: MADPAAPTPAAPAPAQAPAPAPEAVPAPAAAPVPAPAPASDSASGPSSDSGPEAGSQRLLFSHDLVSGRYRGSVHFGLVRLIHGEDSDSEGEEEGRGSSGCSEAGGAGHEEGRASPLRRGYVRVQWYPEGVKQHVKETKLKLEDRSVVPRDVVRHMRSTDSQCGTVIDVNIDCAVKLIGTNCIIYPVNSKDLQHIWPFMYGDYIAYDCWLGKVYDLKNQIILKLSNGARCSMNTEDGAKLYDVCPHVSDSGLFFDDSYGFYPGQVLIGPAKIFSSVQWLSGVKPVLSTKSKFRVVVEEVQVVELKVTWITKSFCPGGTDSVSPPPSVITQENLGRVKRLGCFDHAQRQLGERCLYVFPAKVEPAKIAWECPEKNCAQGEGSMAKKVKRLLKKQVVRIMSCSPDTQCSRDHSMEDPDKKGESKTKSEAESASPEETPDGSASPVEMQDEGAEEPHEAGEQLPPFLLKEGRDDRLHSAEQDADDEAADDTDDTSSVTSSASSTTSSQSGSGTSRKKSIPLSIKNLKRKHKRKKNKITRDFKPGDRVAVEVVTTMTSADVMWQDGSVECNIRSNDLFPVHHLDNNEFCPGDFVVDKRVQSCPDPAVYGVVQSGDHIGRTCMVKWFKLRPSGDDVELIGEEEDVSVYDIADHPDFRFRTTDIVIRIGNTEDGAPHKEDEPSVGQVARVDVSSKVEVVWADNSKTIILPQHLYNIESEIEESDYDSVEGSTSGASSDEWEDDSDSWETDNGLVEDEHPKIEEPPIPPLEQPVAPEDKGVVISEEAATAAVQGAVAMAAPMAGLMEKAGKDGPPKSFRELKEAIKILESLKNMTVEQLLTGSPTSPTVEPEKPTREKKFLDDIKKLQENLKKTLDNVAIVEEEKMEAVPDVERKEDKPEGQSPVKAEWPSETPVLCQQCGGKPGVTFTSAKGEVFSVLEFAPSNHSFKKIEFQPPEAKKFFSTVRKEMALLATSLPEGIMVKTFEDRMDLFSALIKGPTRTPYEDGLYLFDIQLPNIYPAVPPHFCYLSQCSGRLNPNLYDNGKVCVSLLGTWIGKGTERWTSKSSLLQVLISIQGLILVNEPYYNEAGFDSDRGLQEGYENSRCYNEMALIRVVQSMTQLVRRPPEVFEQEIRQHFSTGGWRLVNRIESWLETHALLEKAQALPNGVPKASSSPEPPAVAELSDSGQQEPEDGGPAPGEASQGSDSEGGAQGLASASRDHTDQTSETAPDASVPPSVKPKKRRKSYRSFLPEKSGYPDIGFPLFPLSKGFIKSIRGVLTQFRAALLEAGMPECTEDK

[6] = molecular target: T6, SFB-UBE2O expressed in HeLa cells (human) (UniProt Q9C0C9); test: co-IP; HeLa cells transfected with SFB-Mxi1 or SFB-UBE2O for 24 h, MG132 (10 uM) for 4 h; co-IP with S beads, western blotting for the endogenous partner
T6 sequence: T5 sequence

B1: Ubiquitin-conjugating enzyme E2O (UBE2O), exogenously expressed in HEK293T cells (enzyme, UniProt Q9C0C9 1-1292)
chain: T5 sequence
binding [1]: binds

B3: SFB-UBE2O expressed in HEK293T cells (enzyme, UniProt Q9C0C9 1-1292)
chain: T5 sequence
binding [4]: binds

B4: MAX interactor 1 (Mxi1), exogenously expressed in HEK293T cells (protein, UniProt P50539 1-228)
chain: T1 sequence
binding [5]: binds

Second part, the binder after the results:

binding [2]: binds
binding [3]: binds
B2: endogenous UBE2O (enzyme, UniProt Q9C0C9 1-1292)
chain: T5 sequence

binding [6]: binds
B5: endogenous Mxi1 (protein, UniProt P50539 1-228)
chain: T1 sequence
